No constants are given. Whether binding was seen depends on the method and setting. Binding calls can cover weak binding; strength is not graded here.

Sequences of proteins named here, by UniProt entry; tags and fusion partners are left off. A change or cut given only in a name is not applied to a line headed by its entry.
UniProt P00388: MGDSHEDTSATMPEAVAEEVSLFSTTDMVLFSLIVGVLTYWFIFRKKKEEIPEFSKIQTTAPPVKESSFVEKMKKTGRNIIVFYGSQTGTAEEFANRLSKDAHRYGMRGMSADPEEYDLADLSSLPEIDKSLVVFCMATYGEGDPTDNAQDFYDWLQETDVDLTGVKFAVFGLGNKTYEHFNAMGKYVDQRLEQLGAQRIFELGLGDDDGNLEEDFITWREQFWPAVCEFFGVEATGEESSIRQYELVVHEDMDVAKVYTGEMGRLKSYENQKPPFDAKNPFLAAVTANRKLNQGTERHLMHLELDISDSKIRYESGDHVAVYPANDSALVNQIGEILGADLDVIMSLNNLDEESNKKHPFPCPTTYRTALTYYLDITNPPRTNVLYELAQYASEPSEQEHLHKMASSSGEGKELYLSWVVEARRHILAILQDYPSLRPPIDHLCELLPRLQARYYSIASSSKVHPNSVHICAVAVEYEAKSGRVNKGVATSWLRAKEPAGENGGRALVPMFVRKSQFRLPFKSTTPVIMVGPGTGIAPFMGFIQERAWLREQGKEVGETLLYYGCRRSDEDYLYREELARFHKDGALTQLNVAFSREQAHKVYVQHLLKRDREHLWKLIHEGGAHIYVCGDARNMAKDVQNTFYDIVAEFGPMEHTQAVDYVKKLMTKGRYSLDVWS

For the test, the target named is T1, WT P450 17A1 (human, UniProt P05093 1-508).
T1 construct: cytochrome P450 17A1, human; approximate Mr 57 kDa; also called cytochrome P450 17A1; CYP17A1; source: E. coli JM109 (pCW vector), purified (Ni2+-NTA)
T1 sequence (looked up): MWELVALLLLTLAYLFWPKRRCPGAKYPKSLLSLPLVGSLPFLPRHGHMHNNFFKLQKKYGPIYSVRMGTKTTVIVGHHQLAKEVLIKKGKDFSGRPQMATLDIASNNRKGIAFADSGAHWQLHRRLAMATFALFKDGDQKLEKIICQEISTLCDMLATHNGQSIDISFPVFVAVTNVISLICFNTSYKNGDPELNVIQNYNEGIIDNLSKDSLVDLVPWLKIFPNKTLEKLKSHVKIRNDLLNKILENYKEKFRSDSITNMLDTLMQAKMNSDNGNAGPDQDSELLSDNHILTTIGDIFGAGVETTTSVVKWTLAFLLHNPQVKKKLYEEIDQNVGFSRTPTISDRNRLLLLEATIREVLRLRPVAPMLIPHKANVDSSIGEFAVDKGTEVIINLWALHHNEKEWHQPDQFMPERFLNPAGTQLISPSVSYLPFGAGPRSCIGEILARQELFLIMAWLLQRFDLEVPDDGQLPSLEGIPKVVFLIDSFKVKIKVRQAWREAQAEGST
The test is described as follows: SEC; ternary equimolar (1:1:1) mixture of POR, P450 17A1 and b5 on Superose 12 10/300 GL, 50 mM potassium phosphate pH 7.4, […] NaCl; fractions analysed by SDS gel and densitometry; both purified.

On to “NADPH–P450 reductase (from UniProt P00388) (enzyme)”, for which the binding entry is “binds”.

For the origin of these results see article PMC8080067, “Tight binding of cytochrome b5 to cytochrome P450 17A1 is a critical feature of stimulation of C21 steroid lyase activity and androgen synthesis” (The Journal of Biological Chemistry, 2021).
